Reference: paper PMC5979594
No constants are given. Whether binding was seen depends on the method and setting. Binding seen in cells or lysates may run through a third protein. Some binding calls cover weakened binding; strength is not graded here.

T1: TBPH (TAR DNA-binding protein-43 homolog) (Drosophila melanogaster (endogenous in larval brain)) (UniProt O97468)
T1 sequence: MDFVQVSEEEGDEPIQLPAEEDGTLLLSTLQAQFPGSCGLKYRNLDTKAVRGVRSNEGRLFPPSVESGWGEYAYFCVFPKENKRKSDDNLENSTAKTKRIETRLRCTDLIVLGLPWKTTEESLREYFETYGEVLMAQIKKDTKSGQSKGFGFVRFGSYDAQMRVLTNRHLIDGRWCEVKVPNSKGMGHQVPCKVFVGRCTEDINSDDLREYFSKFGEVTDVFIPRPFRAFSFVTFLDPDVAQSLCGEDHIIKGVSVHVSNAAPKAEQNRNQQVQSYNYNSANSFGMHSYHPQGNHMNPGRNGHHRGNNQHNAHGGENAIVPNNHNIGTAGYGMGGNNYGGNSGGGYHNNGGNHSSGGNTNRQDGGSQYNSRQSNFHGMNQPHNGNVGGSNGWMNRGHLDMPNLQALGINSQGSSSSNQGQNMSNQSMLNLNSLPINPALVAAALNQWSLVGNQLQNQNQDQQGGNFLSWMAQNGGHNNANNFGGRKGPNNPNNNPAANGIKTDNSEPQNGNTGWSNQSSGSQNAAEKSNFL


Biological target: T1, TBPH (TAR DNA-binding protein-43 homolog) (Drosophila melanogaster (endogenous in larval brain))
Assay: co-IP; affinity-purified anti-TBPH antibody (4 ug) on Dynabeads protein A, 250 ug wild-type larval (brain) nuclear extract, overnight; washes in 10 mM HEPES-KOH pH 8, 100 mM NaCl, 0.05 Tween 20, 10% glycerol; Western blot for TBPH, Squid, Hrb87F, GAPDH; generic rabbit IgG as control

Row | binding | Binder
1 | binds | Hrb87F hnRNP (protein, UniProt P48810 1-385) MAEQNDSNGNYDDGEEITEPEQLRKLFIGGLDYRTTDDGLKAHFEKWGNIVDVVVMKDPKTKRSRGFGFITYSQSYMIDNAQNARPHKIDGRTVEPKRAVPRQEIDSPNAGATVKKLFVGGLRDDHDEECLREYFKDFGQIVSVNIVSDKDTGKKRGFAFIEFDDYDPVDKIILQKTHSIKNKTLDVKKAIAKQDMDRQGGGGGRGGPRAGGRGGQGDRGQGGGGWGGQNRQNGGGNWGGAGGGGGFGNSGGNFGGGQGGGSGGWNQQGGSGGGPWNNQGGGNGGWNGGGGGGYGGGNSNGSWGGNGGGGGGGGGFGNEYQQSYGGGPQRNSNFGNNRPAPYSQGGGGGGFNKGNQGGGQGFAGNNYNTGGGGQGGNMGGGNRRY
2 | binds | Squid hnRNP (protein, UniProt Q08473 1-344) MAENKQVDTEINGEDFTKDVTADGPGSENGDAGAAGSTNGSSDNQSAASGQRDDDRKLFVGGLSWETTEKELRDHFGKYGEIESINVKTDPQTGRSRGFAFIVFTNTEAIDKVSAADEHIINSKKVDPKKAKARHGKIFVGGLTTEISDEEIKTYFGQFGNIVEVEMPFDKQKSQRKGFCFITFDSEQVVTDLLKTPKQKIAGKEVDVKRATPKPENQMMGGMRGGPRGGMRGGRGGYGGRGGYNNQWDGQGSYGGYGGGYGGYGAGGYGDYYAGGYYNGYDYGYDGYGYGGGFEGNGYGGGGGGNMGGGRGGPRGGGGPKGGGGFNGGKQRGGGGRQQRHQPY
